Measurements: patent publication US20040037775A1, “Leukocyte internalized peptide-drug conjugates” (priority 2000, published 2004)
At least one peptide structure holds a part that was inferred or is arguable (an end, a ring closure or a residue). Starred links: 1 amine or outer side, 2 acyl side, 3 side chain; linkers in the order of their positions; H or OH if unused. Residues, ends and D or L forms follow the SMILES beside them. *: point of attachment. DAMPA = CN(Cc1cnc2nc(N)nc(N)c2n1)c1ccc(C(=O)*)cc1; γGlu = O=C(O)[C@H](CCC(=O)[*:2])N[*:1]

Chains of the proteins cited; added tags and fusions are not shown. Lines headed by an entry give the natural chain unless they say otherwise; changes in a name come on top.
UniProt P07607: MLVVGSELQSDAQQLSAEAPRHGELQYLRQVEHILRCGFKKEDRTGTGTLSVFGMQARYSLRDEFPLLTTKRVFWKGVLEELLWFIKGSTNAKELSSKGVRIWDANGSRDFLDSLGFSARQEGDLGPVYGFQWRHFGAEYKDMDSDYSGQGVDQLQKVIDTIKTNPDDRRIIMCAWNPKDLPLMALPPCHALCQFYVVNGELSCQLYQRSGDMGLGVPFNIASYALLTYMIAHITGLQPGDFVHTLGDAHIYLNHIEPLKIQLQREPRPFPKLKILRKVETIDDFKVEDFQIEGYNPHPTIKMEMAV

Tests used:
KB epithelial cells = assay: KB MTT assay (96 h); assay type: cell-based, human
Experimental: Human KB epithelial l cells: The human KB epithelial cell line was a gift from Dr Gerrit Jansen (University Free Hospital, Amsterdam, Netherlands) and was developed to overexpress the membrane folate binding protein (mFBP). Cells were cultured in RPMI 1640 medium without folic acid and supplemented with 10% heat inactivated dialyzed FCS (50 mL volume), 0.2 mL of 50 μg/mL gentamicin, 1 mL of 50 μg/mL amphotericin B, and 5 mL of 200 mM L-glutamine. The folate source, 20 nM (R,S)-LV, was added to supply cells with adequate growth conditions.
The cytotoxicity of MTX-peptide conjugates was evaluated in different cell lines, lincluding Molt-3 and L1210 T-cells, and KB epithelial cells. […] After 72 h of growth, the relative numbers of viable cells were determined according to the manufacture's protocols for measuring cytotoxicity using a Dojindo Cytotoxicity Assay Cell counting Kit-8 (CCK-8). […] After incubation, the absorbance at 450 nm was measured using a UV plate reader. Cell growth in the presence of different drug concentrations was calculated relative to the value obtained in the absence of the drug. […] Growth inhibition was determined by counting the cells on a Z2 model Coulter Counter (Coulter Electronics Ltd, Luton, Beds, UK). The IC50 values were calculated using Graphpad Prism software (Graphpad Software, San Diego, Calif.). […]

L1210-1565 cells = assay: cell cycle analysis in L1210-1565 cells (PI staining, flow cytometry); assay type: cell-based, mouse; settings: 1 μM
Experimental: The cell pellets were resuspended and fixed in 2.5 mL of ice-cold 70% ethanol. These pellets were stored at 4° C. before analysis using flow cytometry.
PI staining of fixed cell pellets for cell cycle analysis: One day prior to analysis, cells were centrifuged at 450×g (2500 rpm) for 5 min at room temperature and the pellets re-suspended in 0.8 mL PBS followed by addition of 0.1 mL each of 1 mg/mL ribonuclease A (RNase A; Sigma) and 0.4 mg/mL PI (Sigma). RNA digestion by RNase A is required to avoid the intercalation of PI into the double-stranded regions of this nucleic acid, which interfers with the measurement of DNA. After a 30 min incubation at 37° C., samples were wrapped in aluminum foil and stored at 4° C. overnight. Cell cycle analysis was performed using a Coulter EPICS Elite ESP (Beckman Coulter, Buckinghamshire, UK) equipped with an argon-ion laser tuned to 488 nm and red fluorescence collected at 630 nm. DNA histograms were produced and analyzed using the Winmidi software package (v.2.8, written by J.Trotter, University of Cardiff, UK).

Thymidine synthase (TS) = target: T1, Thymidine synthase (TS) (Mus musculus, UniProt P07607); assay type: cell-based; settings: 3 μM, 4 h incubation
T1 construct: endogenous in cells; host or cells: L1210-1565 mouse leukemia cells

Compound | IC50 (KB epithelial cells) [µM] | time of treatment after which arrest of cells in S phase was seen (L1210-1565 cells) [h] | inhibition of 3H2O production by TS, continuous exposure (Thymidine synthase (TS))
CC(C)[C@H](NC(=O)[C@H](CO)NC(=O)CNC(=O)CNC(=O)[C@H](CCCNC(=N)N)NC(=O)[C@@H]1CCCN1C(=O)CC[C@H](NC(=O)c1ccc(N(C)Cc2cnc3nc(N)nc(N)c3n2)cc1)C(=O)O)C(N)=O [MTX-PRGGSV] ({DAMPA-γGlu}-PRGGSV-NH2) | > 10 | 24 | inhibited to a similar degree
CC[C@H](C)[C@H](NC(=O)[C@@H](NC(=O)CC[C@H](NC(=O)c1ccc(N(C)Cc2cnc3nc(N)nc(N)c3n2)cc1)C(=O)O)C(C)C)C(=O)N[C@@H](CC(C)C)C(=O)N1CCC[C@H]1C(=O)N[C@@H](CCCNC(=N)N)C(=O)NCC(N)=O [MTX-VILPRG] ({DAMPA-γGlu}-VILPRG-NH2) | > 10 |  | 
